Test results from PMC12314914.
The exact form of at least one protein or probe is not confirmed. No signal at the amounts used counts as a negative. At least one verdict rests on a figure or table, not on a statement of the authors.

These sequences were tested on VanR2 (GntR-type transcriptional repressor) (Pseudomonas sp. NGC7) (assay: EMSA). Settings: 20 mM HEPES pH 7.6, 1 mM EDTA, 10 mM (NH4)2SO4, 1 mM DTT, 0.2% Tween 20, 30 mM KCl, 1 mM MgCl2, 0.1 ug/uL poly(dI-C), 0.01 ug/uL poly-L-lysine; 1.5 uM VanR2, 8 nM DNA; recombinant protein; protein details: C-terminal His tag (pET-21a); letters put together from the description.
“CAGCGGGTGCCTTTGTTCGGTGATAGCCAGGACTTTTAGCCCCGTTTAGGAAGATTCTGCCCTACAAAGTCCCAAATGCCAAAAAAGCATGATTACCCGATTGACTTCGGATAGGGCCAACCATAACATGGGATCCCAATAGCGGCAAAAACCTGAAATTTACGCTACGGATACCCTGACTGGGGATCCCAACAAGAACAAAATACTCAGGAGCTGTCCCG (double strand) [B2-1_V1m probe]”: binds. “CAGCGGGTGCCTTTGTTCGGTGATAGCCAGGACTTTTAGCCCCGTTTAGGAAGATTCTGCCCTACAAAGTCCCAAATGCCAAAAAAGCATGATTACCCGATTGACTTCGGATAGGGCCAACCATAACATAAAGTCCCAATAGCGGCAAAAACCTGAAATTTACGCTACGGATACCCTGACTGAAAGTCCCAACAAGAACAAAATACTCAGGAGCTGTCCCG (double strand) [B2-1_VAllm probe]”: no binding. “CGATTGACTTCGGATAGGGCCAACCATAACATGGGATCCCAATAGCGGCAAAAACCTGAAATTTACGCTACGGATACCCTGA (double strand) [IR-V2 probe]”: binds. “CAGCGGGTGCCTTTGTTCGGTGATAGCCAGGACTTTTAGCCCCGTTTAGGAAGATTCTGCCCTACGGGATCCCAAATGCCAAAAAAGCATGATTACCCGATTGACTTCGGATAGGGC (double strand) [IR-V1 probe]”: binds. “CAGCGGGTGCCTTTGTTCGGTGATAGCCAGGACTTTTAGCCCCGTTTAGGAAGATTCTGCCCTACGGGATCCCAAATGCCAAAAAAGCATGATTACCCGATTGACTTCGGATAGGGCCAACCATAACATGGGATCCCAATAGCGGCAAAAACCTGAAATTTACGCTACGGATACCCTGACTGAAAGTCCCAACAAGAACAAAATACTCAGGAGCTGTCCCG (double strand) [B2-1_V3m probe]”: binds. “CAGCGGGTGCCTTTGTTCGGTGATAGCCAGGACTTTTAGCCCCGTTTAGGAAGATTCTGCCCTACGGGATCCCAAATGCCAAAAAAGCATGATTACCCGATTGACTTCGGATAGGGCCAACCATAACATAAAGTCCCAATAGCGGCAAAAACCTGAAATTTACGCTACGGATACCCTGACTGGGGATCCCAACAAGAACAAAATACTCAGGAGCTGTCCCG (double strand) [B2-1_V2m probe]”: binds.
